Data reported in US9422240B2, “Partially saturated nitrogen-containing heterocyclic compound” (TAISHO PHARMACEUTICAL CO., LTD, priority 2012, dated 2016).
The match of structure and compound is tentative.

Sequences of proteins named here, by UniProt entry; tags and fusion partners are left off.
UniProt Q9GZT9, whole entry: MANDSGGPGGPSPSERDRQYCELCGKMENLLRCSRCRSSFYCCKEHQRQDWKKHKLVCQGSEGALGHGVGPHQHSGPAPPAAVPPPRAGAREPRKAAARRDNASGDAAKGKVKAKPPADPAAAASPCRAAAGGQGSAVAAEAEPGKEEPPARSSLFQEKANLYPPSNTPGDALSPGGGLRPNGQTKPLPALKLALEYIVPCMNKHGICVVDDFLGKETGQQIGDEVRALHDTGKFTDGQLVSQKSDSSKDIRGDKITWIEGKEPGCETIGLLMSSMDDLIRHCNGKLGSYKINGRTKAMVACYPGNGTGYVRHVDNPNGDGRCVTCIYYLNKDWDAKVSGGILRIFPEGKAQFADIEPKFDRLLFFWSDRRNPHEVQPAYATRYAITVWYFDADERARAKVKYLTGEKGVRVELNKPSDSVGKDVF

Target: human PHD2 (Homo sapiens (Human), UniProt Q9GZT9)
Experiment: Test 2: human PHD2 inhibitory activity, fluorescence polarization assay of HIF-1α peptide proline hydroxylation
Assay type: biochemical
Conditions: 20-min incubation at 30° C.

- IC50: 52 nM
Structure (SMILES): O=C(O)CNC(=O)C1=C(O)CCN(Cc2ccc(Oc3ccc(Cl)cc3)cc2)C1=O [Ex. 1-265]
